The text below walks through data of PMC4210090.

Amino acid sequences for entries named in this document (tags omitted). A change or cut given only in a name is not applied to a line headed by its entry. Residues count along the entry.
UniProt Q9UKV8: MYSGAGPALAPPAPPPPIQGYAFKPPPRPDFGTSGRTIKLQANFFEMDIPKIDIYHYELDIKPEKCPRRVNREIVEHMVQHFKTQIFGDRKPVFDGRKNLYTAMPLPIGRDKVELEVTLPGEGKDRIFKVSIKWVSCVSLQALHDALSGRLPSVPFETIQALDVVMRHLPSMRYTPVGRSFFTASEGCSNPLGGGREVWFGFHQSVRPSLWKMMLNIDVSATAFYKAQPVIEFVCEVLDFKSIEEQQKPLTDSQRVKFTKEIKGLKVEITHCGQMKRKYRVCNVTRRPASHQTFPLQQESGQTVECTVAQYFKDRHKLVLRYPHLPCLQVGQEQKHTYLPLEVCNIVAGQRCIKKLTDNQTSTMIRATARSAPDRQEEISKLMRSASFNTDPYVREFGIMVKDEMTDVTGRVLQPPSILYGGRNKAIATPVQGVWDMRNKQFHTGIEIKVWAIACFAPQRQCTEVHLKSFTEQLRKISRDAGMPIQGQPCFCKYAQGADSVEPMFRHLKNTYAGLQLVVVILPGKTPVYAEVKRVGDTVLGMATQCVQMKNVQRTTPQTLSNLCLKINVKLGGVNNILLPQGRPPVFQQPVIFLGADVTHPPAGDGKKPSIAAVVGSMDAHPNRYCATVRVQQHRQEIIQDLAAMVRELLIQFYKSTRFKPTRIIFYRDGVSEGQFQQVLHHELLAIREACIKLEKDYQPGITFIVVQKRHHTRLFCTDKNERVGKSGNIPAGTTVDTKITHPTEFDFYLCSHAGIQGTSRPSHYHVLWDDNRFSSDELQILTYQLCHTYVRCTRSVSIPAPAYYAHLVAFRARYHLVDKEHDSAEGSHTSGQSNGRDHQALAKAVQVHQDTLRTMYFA
GST fusion of the PIWI domain of Ago2: residues 517-818 of Q9UKV8
UniProt Q13596: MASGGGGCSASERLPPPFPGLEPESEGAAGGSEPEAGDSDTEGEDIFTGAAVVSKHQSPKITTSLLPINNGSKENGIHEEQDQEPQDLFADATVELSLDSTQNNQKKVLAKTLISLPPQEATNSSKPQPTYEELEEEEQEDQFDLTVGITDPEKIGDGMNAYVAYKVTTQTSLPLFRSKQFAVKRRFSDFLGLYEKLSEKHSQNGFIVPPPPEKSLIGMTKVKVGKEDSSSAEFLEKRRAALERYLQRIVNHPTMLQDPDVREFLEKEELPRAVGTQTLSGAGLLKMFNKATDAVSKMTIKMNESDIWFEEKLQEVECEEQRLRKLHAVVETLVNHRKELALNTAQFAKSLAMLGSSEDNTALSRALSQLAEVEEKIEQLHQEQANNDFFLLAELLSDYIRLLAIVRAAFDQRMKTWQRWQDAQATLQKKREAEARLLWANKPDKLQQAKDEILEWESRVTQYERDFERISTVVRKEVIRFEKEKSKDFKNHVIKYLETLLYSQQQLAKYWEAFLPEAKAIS
UniProt Q9QZ81: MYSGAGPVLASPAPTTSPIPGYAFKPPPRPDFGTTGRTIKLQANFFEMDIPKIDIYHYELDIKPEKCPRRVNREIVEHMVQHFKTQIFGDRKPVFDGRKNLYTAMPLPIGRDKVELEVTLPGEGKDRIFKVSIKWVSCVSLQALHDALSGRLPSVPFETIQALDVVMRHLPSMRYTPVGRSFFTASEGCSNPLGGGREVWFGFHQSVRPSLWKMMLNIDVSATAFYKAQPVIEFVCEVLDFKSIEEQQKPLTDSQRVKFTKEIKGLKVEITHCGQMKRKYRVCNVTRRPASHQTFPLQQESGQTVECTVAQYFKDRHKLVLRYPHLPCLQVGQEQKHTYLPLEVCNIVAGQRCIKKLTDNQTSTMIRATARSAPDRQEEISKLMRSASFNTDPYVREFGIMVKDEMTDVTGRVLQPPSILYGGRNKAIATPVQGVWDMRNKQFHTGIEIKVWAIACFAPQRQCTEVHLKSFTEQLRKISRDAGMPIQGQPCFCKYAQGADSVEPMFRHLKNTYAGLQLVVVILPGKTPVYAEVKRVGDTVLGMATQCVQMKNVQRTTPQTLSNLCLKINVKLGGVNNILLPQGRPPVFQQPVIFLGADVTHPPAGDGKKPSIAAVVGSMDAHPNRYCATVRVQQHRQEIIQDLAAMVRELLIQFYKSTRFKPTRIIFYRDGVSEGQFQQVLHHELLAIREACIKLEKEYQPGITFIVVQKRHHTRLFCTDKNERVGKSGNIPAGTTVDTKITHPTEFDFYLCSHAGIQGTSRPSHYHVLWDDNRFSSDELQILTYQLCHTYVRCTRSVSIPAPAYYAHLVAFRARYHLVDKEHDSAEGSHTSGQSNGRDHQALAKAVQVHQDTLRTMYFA

No constants are given. Whether binding was seen depends on the method and setting. For part of these data: Binding seen in cells or lysates may run through a third protein. Some binding calls cover weakened binding; strength is not graded here.

In test [1] the target is endogenous PICK1 (cultured neurons) (not stated (endogenous in cultured neurons)) (UniProt Q9EP80). In words: co-IP; lysates of cultured neurons immunoprecipitated with anti-PICK1 or control IgG, protein G-sepharose; washed in 0.5% Triton X-100, 150 mM NaCl, 20 mM HEPES pH 7.4; western blotting; also after TTX, Bicuculline or NMDA (chemical LTD) treatment, the interaction being decreased after chemical LTD. A general note: In western blotting, separated proteins are transferred to a membrane and probed.

Test [2] deals with GST fusion of the PIWI domain of Ago2 (UniProt Q9UKV8). Kind of test: pull-down; GST fusions of Ago2 truncation mutants incubated with purified his6-PICK1; bound protein detected by western blotting; both purified.
The target in a further test is GFP-PICK1 (UniProt Q9EP80). Kind of test: co-IP; HEK293 cell lysates incubated with GFP-trap agarose or blocked agarose beads as control; western blotting with anti-myc or anti-GFP.
In a further test the target is GST-PICK1 full-length (UniProt Q9EP80). In words: pull-down; GST fusion proteins incubated with HEK293 cell lysate expressing myc-Ago2; bound proteins detected by western blotting with anti-myc or by Coomassie staining; only the target purified.
Test [3] addresses GST-SNX1 (sorting nexin 1) (UniProt Q13596). The test is described as above.

On to “endogenous Ago2 (cultured neurons) (from UniProt Q9QZ81 1-860)”, for which, in test [1], the binding entry was “binds”.
Turning to his6-PICK1 (from UniProt Q9EP80 1-416), the binding entry in test [2] is on record as “binds”.
On to myc-Ago1 (from UniProt Q9UL18 1-857), for which the binding result in the test with GFP-PICK1 is given as “binds”.
Turning to myc-Ago2 (from UniProt Q9UKV8 1-859), the binding result is “binds” with GFP-PICK1, “binds” with GST-PICK1 full-length and “no binding” in test [3].
